Data on 14 molecules can be found in patent US20190338026A1 (University of Texas, published 2019).

These are yes or no findings as the source states them, for the method shown. Some results given as binding are weak or reduced against the parent protein; the word gives no strength. Sequences can lack the tags named with a protein.

The target of assay [1] is T1, human LAIR1 extracellular domain (ECD) protein with 6 HIS tag at the C-terminus (human) (UniProt Q6GTX8).
T1 sequence: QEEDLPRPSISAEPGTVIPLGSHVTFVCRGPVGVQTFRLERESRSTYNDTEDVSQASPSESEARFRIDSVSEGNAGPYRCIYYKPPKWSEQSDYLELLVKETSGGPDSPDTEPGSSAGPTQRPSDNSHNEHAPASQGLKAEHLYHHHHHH
Put plainly: ELISA. (In general: In an ELISA, binding on a coated surface is turned into a signal by an enzyme label.)

The target in assay [2] is T1, human LAIR1 extracellular domain (ECD) protein with 6 HIS tag at the C-terminus (human). Put plainly: ELISA, LAIR1 ECD coated.

B1: LA-141 (antibody, V domains shown)
VH: QSLEESGGRLVKPDESLTLTCTVSGFSLSSNAMSWVRQAPGKGLEWIGYIYGDGRTFYANWAKGRITISRTSTTVDLKMTSLRTEDTATYFCVKSLILWGPGTLVTISS
VL: ELDMTQTPSPVSAAVGGTVTINCQSSHSVYNANQLYWYQQKPGQPPKLLIYDASTLASGVPSRFKGSGSGTQFTLTISGVQCDDAATYYCLGEYSGNIYVFGEGTEVEIN
notes: Rabbit monoclonal IgG
Regarding B1, the binding entry in assay [1] and in assay [2] was “binds” each time.

B2: LA-155 (antibody, V domains shown)
VH: EQSLEESGGDLVKPEGSLTLTCTASGFSFNSNYWICWVRQTPGKGLEWIGCIYSGSSGDTYYASWAKGRFTISKTSSTTVTLQMTSLTAADTATYFCARGADYVYWSYGLWGPGTLVTISS
VL: ELVLTQTPASVSAAVGGTLTIKCQASETIGTNLAWYQQKPGQPPKLLIYLASYLASGVSSRFKGSRSGTEFTLTISDLDCDDAATYYCQSTHFGNGHTFGGGTEVVVK
notes: Rabbit monoclonal IgG
As for B2, the binding entry in assay [1] and in assay [2] was “binds” throughout.

B3: LA-151 (antibody, V domains shown)
VH: SSSVEESGGRLVTPGTPLTLTCTVSGFSLGSYAMGWVRQGPGKGLEWIGAVYGTTGYIYFATWAKGRFTISKTSTTVDLKITSPTTEDTATYFCARGYLTDSIANGFGVWGPGTLVTVSS
VL: ELDLTQTPASVSEPVGGTVTIKCQASQTITNRYLAWYQQKPGQPPKLLIYQSSKLASGVSSRFKGSGSGTDFTLTISDLECADAATYYCQCTDYGSTYLGTFGGGTEVEIK
notes: Rabbit monoclonal IgG
As to B3, the binding entry in assay [1] and in assay [2] was “binds” throughout.

B4: LA-87 (antibody, V domains shown)
VH: QSVKESGGRLVTPGGSLTLTCTVSGFSLSNYNIQWVRQAPGKGLEWIGFISPAGNGYYASWAKGRFTISKASSTTVELKMTSLTASDTATYFCARHWDLWGPGTLVTISS
VL: ELVLTQTASSVSAAVGGTVTISCQSSQSVYSNYLSWFQQKPGQPPKELVYWTSTLQSGVPSRFSGSGSGTQFTLTISDLECDDAATYYCLGGYSGWFYAFGGGTEVVVK
notes: Rabbit monoclonal IgG; also called mAb LA-87
In the case of B4, the binding result in assay [1] and in assay [2] was “binds” throughout.

B5: LA-95 (antibody, V domains shown)
VH: EQSLKESGGRLVTPGGSLTLTCTASGFDINNYNIQWVRQAPGKGLEWIGFISPAGNEYSATWAKGRFTIYKTSSTTVELKMTSLTASDTATYFCARHWDSWGPGTLVTISS
VL: ELVMTQTESPVSAAVGGTVTISCQSSQSVYSNRLSWFQQKPGQPPKELVYWTSTLQSGVPSRFSGSGSGTQFTLTISDLECDDAATYYCLGGYSGNIYVFGGGTEVEIK
notes: Rabbit monoclonal IgG; also called mAb LA-95
Regarding B5, the binding entry in assay [1] and in assay [2] was “binds” each time.

B6: LA-60 (antibody, V domains shown)
VH: EQSLESGGGLVQPEGSLTLTCTASGFSFSNSYYMCWVRQAPGKGLEWIGCIYTGSSSGTYYASWAEGRFTISKTPSTTVTLQMTSLTAADTATYFCSRKLTNFNGAYLDLWGPGTLVTVSS
VL: ELVLTQTPASVEAAVGGTVTIKCQASQSIYSYLAWYQQKPGQPPKVLIYKASTLASGVPSRFKGSGSGTEFTLTISDLECADAATYYCQNNNGGSDNTFGGGTEVVVK
notes: Rabbit monoclonal IgG; also called mAb LA-60
Consider B6, for which the binding entry in assay [1] and in assay [2] was “binds” in each case.

B7: LA-252 (antibody, V domains shown)
VH: EQSVEESGGRLVTPGTPLTLTCTASGFTISDYHMCWVRQAPGKGLEWIGLIRASHSTAYASWANGRFTISRTSTTVDLKITSPTSEDTATYFCARYGGSGIGCNLWGPGTLVTISS
VL: ELVLTQTPASVSEPVGGTVTIKCQASQSIDSNLAWYQQKPGQPPKQLIYAVSNLASGVPSRFKGSGSGTEFTLTISDLECADAASYYCECTYYGNSYVGGFGGGTEVEIK
notes: Rabbit monoclonal IgG; Called a potential antagonist antibody
For the molecule B7, the binding result in assay [1] and in assay [2] was “binds” each time.

B8: LA-222 (antibody, V domains shown)
VH: EQSVEESGGDLVKPGASLTLTCTASGFSFTYWICWVRQAPGKGLEWIACIYAGSSGDTYYASWAKGRFTISKTSSTTVTLQMTSLTAADTATYFCARSPDYVAWGYDLWGPGTRVTVSS
VL: ELVLTQTPASVSAAVGGTVTINCQASQSIGTNLVWYQQKPGQPPKLLFYYASTLASGVPSRFRGSRSGTEYTLTISDLECADAATYYCQCIYYGGNYGHTFGGGTEVVVK
notes: Rabbit monoclonal IgG
For the molecule B8, the binding entry in assay [1] and in assay [2] was “binds” throughout.

B9: LA-82 (antibody, V domains shown)
VH: EQSLEESGGDLVKPGASLTLACTASGFSFSDGYYMCWVRQAPGKGLEWIGCIHSSSGSIYYASWAKGRFTISKTSSTMVTLQMSSLTAADTATYFCARDSESYGYNPCELWGPGTLVTISS
VL: ELVMTQTPASVSEAVGGTVTIKCQASQTISNYLAWYQQKPGQRPKLLIYAASSLASGVSSRFRGSRSGTEYTLTITDLECDDAATYYCQCTYYGTTYIGGAFGGGTEVEIK
notes: Rabbit monoclonal IgG; also called mAb LA-82
B9: the binding result in assay [1] and in assay [2] was “binds” in each case.

B10: LA-117 (antibody, V domains shown)
VH: QSVKESGGDLVKPGASLTLACTASGFSFSDGYYMCWVRQAPGKGLEWIGCIHSSSGSIYYASWAKGRFTISKTSSTMVTLQMSSLTAADTATYFCARDSESYGYNPCELWGPGTLVTISS
VL: ELDLTQTPASVSEAVGGTVTIKCQASQTISNYLAWYQQKPGQRPKLLIYAASSLASGVSSRFRGSRSGTEYTLTITDLECDDAATYYCQCTYYGTTYVGGAFGGGTELEIK
notes: Rabbit monoclonal IgG
With B10, the binding entry in assay [1] and in assay [2] was “binds” throughout.

B11: LA-63 (antibody, V domains shown)
VH: EQSVEESGGRLVAPGGSLTLTCTVSGFSLSSYAMSWVRQAPGKGLEWIGVMYNSGSAYYASWAKGRFTISRTSTTVDLKVTSLTTEDTATYFCGRGGSNSAWGDDLWGPGTLVTVSS
VL: ELDMTQTPASVSEPVGGTVTIKCQASQSISIRYFSWYQQKPGQPPKLLIYGASTLASGVPSRFKGSGSGTDFTLTISDLECADAATYYCQDSNYNSNYFGAFGGGTEVVVK
notes: Rabbit monoclonal IgG; also called mAb LA-63
For B11, the binding result in assay [1] and in assay [2] was “binds” each time.

B12: LA-101 (antibody, V domains shown)
VH: EQSVEESGGRLVTPGTPLTLTCTVSGFSLSSFHMCWVRQAPGKGLEYIGIIYPGGSTGYANWAKGRFTVSKASNTVDLKISSPTTEDTATYFCARVNYGDWINGMDLWGPGTLVTISS
VL: ELDMTQTPASVSEPVGGTVTIKCQASQSIGSNLAWYQQKPGQRPKLLIYKASTLASGVPSRFKGSGSGTDFTLTISDLECADAASYYCQQAYWSGNVDNVFGGGTEVEIK
notes: Rabbit monoclonal IgG
Consider B12, for which the binding entry in assay [1] and in assay [2] was “binds” each time.

B13: LA-64 (antibody, V domains shown)
VH: EQSLESGGGLITPGGTLTLTCTASGFTVTRYYMNWVRQAPGKGLEWIGYIYASSKTYYANWAKGRFTISKTSTTVDLKMTSLTAEDTGTYFCARGGVGNSGLNLDLWGPGTLVTISS
VL: ELVLTQTPASVSEPVGGTVTIKCQASQSIGSWLAWYQQKPGQPPKLLIYQASRLASGVSSRFGGSGSGTEFTLTISDLECADAATYYCQQAEYSGDVENTFGGGTEVVVK
notes: Rabbit monoclonal IgG; also called mAb LA-64
For B13, the binding entry in assay [1] and in assay [2] was “binds” throughout.

B14: LA-219 (antibody, V domains shown)
VH: EQSVESGGGLITPGGTLTLTCTASGFTVTRYYMNWVRQAPGKGLEWIGYIYASSKTYYANWAKGRFTISKTSTTVDLKMTSLTAEDTGTYFCARGGVGNSGLNLDLWGPGTLVTISS
VL: ELDMTQTPASVSEPVGGTVTIKCQASQSIGSWLAWYQQKPGQPPKLLIYQASRLASGVSSRFGGSGSGTEFTLTISDLECADAATYYCQQAEYSGDVENTFGGGTEVVVK
notes: as for B7
In the case of B14, the binding entry in assay [1] and in assay [2] was “binds” each time.
